Reference: the supplement of paper PMC10849652
The list shows a part of the results.

The chains behind the UniProt entries cited, without tags or fusion partners. Where a name states a change or a piece, a line headed by the entry shows the natural chain unless it says otherwise.
UniProt Q96AE4: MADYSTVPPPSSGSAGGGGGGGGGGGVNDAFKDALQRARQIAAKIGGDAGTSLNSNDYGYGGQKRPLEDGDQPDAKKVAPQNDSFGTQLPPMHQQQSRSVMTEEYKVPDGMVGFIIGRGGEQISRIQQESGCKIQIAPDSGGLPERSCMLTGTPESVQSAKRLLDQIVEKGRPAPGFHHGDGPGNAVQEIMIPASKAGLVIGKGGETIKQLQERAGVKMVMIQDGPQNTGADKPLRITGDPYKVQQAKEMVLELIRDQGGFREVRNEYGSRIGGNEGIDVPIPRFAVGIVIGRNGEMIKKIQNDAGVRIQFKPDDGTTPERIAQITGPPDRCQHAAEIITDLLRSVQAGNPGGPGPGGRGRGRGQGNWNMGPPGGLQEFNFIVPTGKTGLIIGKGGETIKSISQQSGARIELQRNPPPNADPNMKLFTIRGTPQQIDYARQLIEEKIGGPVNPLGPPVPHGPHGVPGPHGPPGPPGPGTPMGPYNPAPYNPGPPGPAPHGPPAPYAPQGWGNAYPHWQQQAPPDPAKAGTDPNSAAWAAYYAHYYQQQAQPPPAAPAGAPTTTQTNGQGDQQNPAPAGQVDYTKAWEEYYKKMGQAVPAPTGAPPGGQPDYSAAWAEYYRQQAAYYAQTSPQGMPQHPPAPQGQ
UniProt P34059: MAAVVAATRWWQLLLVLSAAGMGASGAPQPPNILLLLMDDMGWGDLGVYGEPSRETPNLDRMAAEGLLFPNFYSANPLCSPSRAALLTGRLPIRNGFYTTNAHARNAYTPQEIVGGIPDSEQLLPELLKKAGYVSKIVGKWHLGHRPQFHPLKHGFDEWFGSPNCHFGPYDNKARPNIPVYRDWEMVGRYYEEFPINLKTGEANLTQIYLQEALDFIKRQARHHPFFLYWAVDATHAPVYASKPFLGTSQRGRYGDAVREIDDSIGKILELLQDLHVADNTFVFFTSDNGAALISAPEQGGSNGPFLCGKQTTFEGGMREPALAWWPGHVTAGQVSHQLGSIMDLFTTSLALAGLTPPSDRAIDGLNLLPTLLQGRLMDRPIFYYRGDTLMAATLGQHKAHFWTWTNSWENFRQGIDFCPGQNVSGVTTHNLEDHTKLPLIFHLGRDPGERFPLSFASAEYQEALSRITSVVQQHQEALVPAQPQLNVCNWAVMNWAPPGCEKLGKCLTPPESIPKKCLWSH
UniProt Q16595: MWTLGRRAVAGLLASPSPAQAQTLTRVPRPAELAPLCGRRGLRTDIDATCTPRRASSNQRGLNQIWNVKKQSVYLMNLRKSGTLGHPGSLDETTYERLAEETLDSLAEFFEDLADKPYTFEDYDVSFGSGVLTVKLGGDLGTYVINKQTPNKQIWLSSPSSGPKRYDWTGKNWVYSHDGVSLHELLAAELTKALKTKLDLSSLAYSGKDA
UniProt Q8N9F7: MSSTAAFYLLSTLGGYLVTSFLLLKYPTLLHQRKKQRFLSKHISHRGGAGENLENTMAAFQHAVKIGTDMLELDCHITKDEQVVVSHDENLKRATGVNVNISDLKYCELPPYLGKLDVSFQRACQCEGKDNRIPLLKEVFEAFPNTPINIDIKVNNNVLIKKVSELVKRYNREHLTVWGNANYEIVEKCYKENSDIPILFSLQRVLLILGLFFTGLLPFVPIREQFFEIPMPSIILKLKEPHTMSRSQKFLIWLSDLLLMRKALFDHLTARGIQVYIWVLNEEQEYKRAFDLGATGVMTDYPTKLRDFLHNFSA
UniProt Q9BQS8: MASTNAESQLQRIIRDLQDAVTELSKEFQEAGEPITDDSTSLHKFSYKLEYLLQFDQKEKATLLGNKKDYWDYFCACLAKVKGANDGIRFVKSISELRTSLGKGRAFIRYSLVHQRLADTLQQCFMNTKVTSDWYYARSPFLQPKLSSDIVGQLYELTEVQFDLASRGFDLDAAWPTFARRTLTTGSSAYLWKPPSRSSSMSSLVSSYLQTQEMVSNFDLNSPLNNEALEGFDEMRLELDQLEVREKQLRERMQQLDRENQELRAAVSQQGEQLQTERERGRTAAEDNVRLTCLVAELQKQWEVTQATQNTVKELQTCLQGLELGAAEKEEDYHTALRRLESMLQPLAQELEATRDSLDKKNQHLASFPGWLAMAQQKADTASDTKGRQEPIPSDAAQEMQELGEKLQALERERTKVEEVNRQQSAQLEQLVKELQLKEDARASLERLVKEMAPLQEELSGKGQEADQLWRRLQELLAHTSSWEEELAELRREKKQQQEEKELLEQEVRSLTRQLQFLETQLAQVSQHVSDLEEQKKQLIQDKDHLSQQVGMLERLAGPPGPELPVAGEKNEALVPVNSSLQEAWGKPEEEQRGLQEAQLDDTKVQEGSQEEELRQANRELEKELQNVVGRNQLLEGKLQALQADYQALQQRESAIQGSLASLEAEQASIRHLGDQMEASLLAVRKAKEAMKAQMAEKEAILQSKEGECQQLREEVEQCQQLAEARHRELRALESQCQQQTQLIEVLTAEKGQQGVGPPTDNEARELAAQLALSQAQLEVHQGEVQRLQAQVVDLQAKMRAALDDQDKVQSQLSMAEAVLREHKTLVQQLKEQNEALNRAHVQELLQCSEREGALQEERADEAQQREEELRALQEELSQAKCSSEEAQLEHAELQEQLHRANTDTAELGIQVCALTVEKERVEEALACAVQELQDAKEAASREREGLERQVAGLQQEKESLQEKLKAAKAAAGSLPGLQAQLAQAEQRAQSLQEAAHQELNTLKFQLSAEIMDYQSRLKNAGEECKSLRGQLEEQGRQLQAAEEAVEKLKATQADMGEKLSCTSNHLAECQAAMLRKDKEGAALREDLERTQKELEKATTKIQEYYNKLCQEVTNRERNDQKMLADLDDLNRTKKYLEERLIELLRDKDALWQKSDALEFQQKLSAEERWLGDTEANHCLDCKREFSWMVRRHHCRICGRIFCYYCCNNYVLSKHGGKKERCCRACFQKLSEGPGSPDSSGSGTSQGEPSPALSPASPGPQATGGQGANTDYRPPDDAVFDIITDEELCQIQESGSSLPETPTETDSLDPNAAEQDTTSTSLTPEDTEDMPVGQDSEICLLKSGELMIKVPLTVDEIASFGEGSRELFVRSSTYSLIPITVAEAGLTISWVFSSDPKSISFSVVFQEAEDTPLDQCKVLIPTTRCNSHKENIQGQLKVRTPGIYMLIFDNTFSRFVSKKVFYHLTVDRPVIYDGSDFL
UniProt P57678: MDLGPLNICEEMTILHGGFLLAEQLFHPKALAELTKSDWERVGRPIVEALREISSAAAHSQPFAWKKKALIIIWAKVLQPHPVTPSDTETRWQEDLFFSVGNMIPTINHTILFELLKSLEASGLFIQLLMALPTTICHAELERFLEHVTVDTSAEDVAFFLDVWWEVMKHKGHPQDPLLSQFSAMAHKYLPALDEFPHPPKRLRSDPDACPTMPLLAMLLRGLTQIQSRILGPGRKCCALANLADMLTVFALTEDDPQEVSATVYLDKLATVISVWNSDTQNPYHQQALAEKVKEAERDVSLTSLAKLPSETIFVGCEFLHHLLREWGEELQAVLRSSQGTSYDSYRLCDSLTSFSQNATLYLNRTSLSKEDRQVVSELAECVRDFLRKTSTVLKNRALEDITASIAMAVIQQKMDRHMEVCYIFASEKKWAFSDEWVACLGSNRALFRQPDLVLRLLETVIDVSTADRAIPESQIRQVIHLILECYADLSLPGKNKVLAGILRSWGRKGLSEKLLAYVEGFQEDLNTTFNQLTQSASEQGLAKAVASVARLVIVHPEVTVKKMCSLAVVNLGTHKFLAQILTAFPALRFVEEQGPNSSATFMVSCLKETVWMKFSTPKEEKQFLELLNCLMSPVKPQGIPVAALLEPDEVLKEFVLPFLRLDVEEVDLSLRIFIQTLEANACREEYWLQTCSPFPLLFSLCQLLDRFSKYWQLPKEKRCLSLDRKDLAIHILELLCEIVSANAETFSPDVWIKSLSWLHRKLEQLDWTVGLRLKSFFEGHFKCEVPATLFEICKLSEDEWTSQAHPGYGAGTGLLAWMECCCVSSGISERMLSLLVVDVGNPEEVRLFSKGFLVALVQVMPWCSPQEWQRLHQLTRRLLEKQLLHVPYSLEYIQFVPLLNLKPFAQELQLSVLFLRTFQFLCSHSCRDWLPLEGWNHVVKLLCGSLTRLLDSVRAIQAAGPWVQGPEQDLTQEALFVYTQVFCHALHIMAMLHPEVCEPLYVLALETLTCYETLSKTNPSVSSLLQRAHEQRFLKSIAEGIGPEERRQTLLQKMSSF
UniProt Q14376: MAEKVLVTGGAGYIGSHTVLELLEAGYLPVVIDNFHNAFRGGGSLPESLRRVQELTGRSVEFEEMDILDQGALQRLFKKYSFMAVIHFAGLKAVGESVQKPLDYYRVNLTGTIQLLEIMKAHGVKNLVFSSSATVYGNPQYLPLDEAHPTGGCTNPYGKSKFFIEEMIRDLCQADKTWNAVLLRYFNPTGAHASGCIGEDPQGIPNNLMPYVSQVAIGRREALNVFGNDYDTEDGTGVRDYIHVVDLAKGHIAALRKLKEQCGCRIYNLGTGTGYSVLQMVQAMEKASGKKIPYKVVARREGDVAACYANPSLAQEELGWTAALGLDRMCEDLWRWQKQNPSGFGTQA
UniProt P55789: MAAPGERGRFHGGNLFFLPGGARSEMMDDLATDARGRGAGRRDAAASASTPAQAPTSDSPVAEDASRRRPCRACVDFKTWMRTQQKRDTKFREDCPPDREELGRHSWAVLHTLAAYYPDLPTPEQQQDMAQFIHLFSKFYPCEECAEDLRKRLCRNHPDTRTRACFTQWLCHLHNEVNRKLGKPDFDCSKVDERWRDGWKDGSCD
UniProt Q6ZNA5: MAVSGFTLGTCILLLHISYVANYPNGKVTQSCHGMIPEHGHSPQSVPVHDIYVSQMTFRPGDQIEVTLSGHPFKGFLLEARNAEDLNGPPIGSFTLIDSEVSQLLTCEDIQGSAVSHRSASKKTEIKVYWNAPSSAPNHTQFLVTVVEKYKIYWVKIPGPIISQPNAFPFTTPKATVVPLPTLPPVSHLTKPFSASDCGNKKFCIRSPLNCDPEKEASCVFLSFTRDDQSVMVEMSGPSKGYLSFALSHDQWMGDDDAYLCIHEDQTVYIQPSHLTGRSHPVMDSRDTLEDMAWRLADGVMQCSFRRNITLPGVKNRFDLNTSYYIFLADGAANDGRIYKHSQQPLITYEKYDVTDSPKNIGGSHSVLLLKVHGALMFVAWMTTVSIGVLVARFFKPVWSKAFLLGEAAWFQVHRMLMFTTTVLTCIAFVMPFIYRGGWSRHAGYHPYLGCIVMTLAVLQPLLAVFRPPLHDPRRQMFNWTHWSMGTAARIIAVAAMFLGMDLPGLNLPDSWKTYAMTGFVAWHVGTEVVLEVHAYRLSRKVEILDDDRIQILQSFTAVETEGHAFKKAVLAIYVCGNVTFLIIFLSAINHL
UniProt O43524: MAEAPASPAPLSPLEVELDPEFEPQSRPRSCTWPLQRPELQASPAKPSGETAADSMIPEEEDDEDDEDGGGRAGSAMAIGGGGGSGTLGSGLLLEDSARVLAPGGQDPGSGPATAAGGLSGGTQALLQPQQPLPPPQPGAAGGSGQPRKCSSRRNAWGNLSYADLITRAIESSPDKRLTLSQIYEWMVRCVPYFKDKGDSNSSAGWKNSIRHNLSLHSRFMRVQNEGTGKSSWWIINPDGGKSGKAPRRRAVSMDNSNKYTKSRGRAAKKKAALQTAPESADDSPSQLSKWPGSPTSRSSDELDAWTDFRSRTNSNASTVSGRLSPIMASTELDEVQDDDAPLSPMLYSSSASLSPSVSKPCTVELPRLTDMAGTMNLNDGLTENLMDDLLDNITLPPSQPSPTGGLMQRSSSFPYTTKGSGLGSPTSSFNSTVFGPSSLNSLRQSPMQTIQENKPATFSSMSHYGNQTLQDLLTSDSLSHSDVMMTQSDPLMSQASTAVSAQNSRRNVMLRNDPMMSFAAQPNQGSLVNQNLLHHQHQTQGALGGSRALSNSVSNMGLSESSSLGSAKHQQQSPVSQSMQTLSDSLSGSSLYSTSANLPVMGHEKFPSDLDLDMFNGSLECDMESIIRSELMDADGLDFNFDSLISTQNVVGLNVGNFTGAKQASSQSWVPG

Assays:
Test in all cases: log2 fold change, soluble protein after heating vs DMSO (PISA); higher = thermal stabilisation; K562 lysate, 10 uM; active = over 0.2 and 3.5 SD of the protein, either way, in both replicates (recomputed)
nilotinib = compound: Cc1cn(-c2cc(NC(=O)c3ccc(C)c(Nc4nccc(-c5cccnc5)n4)c3)cc(C(F)(F)F)c2)cn1 [nilotinib]
Outline: (§1)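 Log-two fold change in thermal stability relative to solvent controls is reported from duplicates. For each sample, crude K562 extract from dounce-homogenised pellets in PBS pH 7.4 with 1 mM MgCl2, at 1 mg/mL protein, was treated with 10 μM compound for 30 min. Aliquots heated for 3 min across 48°C-58°C were pooled, brought to 0.5% NP-40 at 4°C and cleared at 21,000xg for 90 min. The supernatant was quantified by TMTpro 16plex LC-MS/MS with channel sums equalised.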

[1] = compound: Cc1nc(Nc2n[nH]c3c2CN(C(=O)N[C@H](CN(C)C)c2ccccc2)C3(C)C)c2sccc2n1
Outline: as §1

dasatinib = compound: Cc1nc(Nc2ncc(C(=O)Nc3c(C)cccc3Cl)s2)cc(N2CCN(CCO)CC2)n1 [dasatinib]
Outline: as §1

[2] = compound: Cc1ncc(-c2ccnc(Nc3ccc(S(C)(=O)=O)cc3)n2)n1C(C)C
Outline: as §1

[3] = compound: Cn1cc(-c2ccc3c(c2)CCN3C(=O)Cc2cccc(C(F)(F)F)c2)c2c(N)ncnc21
Outline: as §1

quisinostat = compound: Cn1cc(CNCC2CCN(c3ncc(C(=O)NO)cn3)CC2)c2ccccc21 [quisinostat]
Outline: as §1

tipifarnib = compound: Cn1cncc1[C@@](N)(c1ccc(Cl)cc1)c1ccc2c(c1)c(-c1cccc(Cl)c1)cc(=O)n2C [tipifarnib]
Outline: as §1

[4] = compound: NC(=O)Nc1cc(-c2cccc(F)c2)sc1C(=O)N[C@H]1CCCNC1
Outline: as §1

[5] = compound: NC(=O)c1cnc(N[C@@H]2CCCC[C@@H]2N)nc1Nc1cccc(-n2nccn2)c1
Outline: as §1

[6] = compound: NC1(c2ccc(-c3nc4ccn5c(=O)[nH]nc5c4cc3-c3ccccc3)cc2)CCC1
Outline: as §1

[7] = compound: NCC(=O)Nc1ccc(-n2nc(C(F)(F)F)cc2-c2ccc3c(ccc4ccccc43)c2)cc1
Outline: as §1

vorinostat = compound: O=C(CCCCCCC(=O)Nc1ccccc1)NO [vorinostat]
Outline: as §1

silmitasertib = compound: O=C(O)c1ccc2c(c1)nc(Nc1cccc(Cl)c1)c1ccncc12 [silmitasertib]
Outline: as §1

[8] = compound: O=C1NC(=O)C(c2cnc3ccccn23)=C1c1cn2c3c(cc(F)cc13)CN(C(=O)N1CCCCC1)CC2
Outline: as §1

entospletinib = compound: c1cn2cc(-c3ccc4cn[nH]c4c3)nc(Nc3ccc(N4CCOCC4)cc3)c2n1 [entospletinib]
Outline: as §1

Target	log2 fold change (nilotinib)	log2 fold change [1]	log2 fold change (dasatinib)	log2 fold change [2]	log2 fold change [3]	log2 fold change (quisinostat)	log2 fold change (tipifarnib)	log2 fold change [4]	log2 fold change [5]	log2 fold change [6]	log2 fold change [7]	log2 fold change (vorinostat)	log2 fold change (silmitasertib)	log2 fold change [8]	log2 fold change (entospletinib)
FUBP1 (UniProt Q96AE4)	inactive: -0.06	inactive: -0.126	inactive: 0.103	inactive: 0.022	inactive: -0.024	inactive: 0.026	inactive: 0.167	inactive: 0.022	inactive: -0.035	inactive: 0.007	inactive: 0.018	inactive: -0.019	inactive: 0.119	inactive: 0.116	inactive: 0.007
GALNS (UniProt P34059)	inactive: 0.028	inactive: -0.006	inactive: 0.01	inactive: -0.004	inactive: 0	inactive: 0.02	inactive: -0.015	inactive: 0.019	inactive: 0.084	inactive: -0.02	inactive: -0.011	inactive: 0.087	inactive: -0.017	inactive: -0.003	inactive: -0.073
FXN (UniProt Q16595)	inactive: 0.048	inactive: 0.053	inactive: -0.012	inactive: 0.079	inactive: 0.015	inactive: 0.043	inactive: 0.074	inactive: -0.008	inactive: -0.041	inactive: 0.033	inactive: -0.071	inactive: 0.138	inactive: -0.065	inactive: 0.058	inactive: -0.06
GDPD1 (UniProt Q8N9F7)	inactive: -0.047	inactive: 0.011	inactive: 0.026	inactive: 0.011	inactive: -0.05	inactive: -0.056	inactive: 0.024	inactive: -0.02	inactive: 0.053	inactive: -0.017	inactive: -0.137	inactive: 0.056	inactive: 0.033	inactive: 0.177	inactive: -0.092
FYCO1 isoform 4 (UniProt Q9BQS8)	inactive: -0.02	inactive: -0.022	inactive: 0.011	inactive: 0.016	inactive: 0.031	inactive: -0.014	inactive: -0.012	inactive: 0.019	inactive: 0.015	inactive: -0.008	inactive: -0.002	inactive: -0.002	inactive: 0.047	inactive: 0.033	inactive: -0.002
GEMIN4 (UniProt P57678)	inactive: -0.001	inactive: -0.014	inactive: -0.047	inactive: -0.001	inactive: 0.101	inactive: -0.056	inactive: 0.006	inactive: 0.077	inactive: -0.001	inactive: -0.097	inactive: -0.025	active: -0.435	inactive: 0.1	inactive: 0.019	inactive: 0.034
GALE (UniProt Q14376)	inactive: 0.011	inactive: 0.007	inactive: 0.037	inactive: -0.016	inactive: 0.036	inactive: 0.023	inactive: -0.017	inactive: 0.032	inactive: 0.025	inactive: 0.028	inactive: -0.034	inactive: -0.273	inactive: 0.085	inactive: -0.063	inactive: 0.047
GFER (UniProt P55789)	inactive: 0.053	inactive: -0.026	inactive: 0.046	inactive: -0.124	inactive: 0.068	inactive: 0.002	inactive: 0.032	inactive: 0.018	inactive: -0.004	inactive: -0.132	inactive: -0.04	inactive: 0.129	inactive: -0.028	inactive: -0.04	inactive: -0.075
FRRS1 (UniProt Q6ZNA5)	inactive: 0.024	inactive: -0.038	inactive: 0.055	inactive: 0.009	inactive: 0.054	inactive: -0.014	inactive: -0.075	inactive: -0.046	inactive: -0.012	inactive: -0.032	inactive: 0.007	inactive: 0.125	inactive: -0.022	inactive: -0.01	inactive: -0.012
FOXO3 (UniProt O43524)	inactive: -0.128	inactive: 0.191	inactive: 0.005	inactive: -0.228	inactive: -0.018	inactive: -0.05	inactive: 0.023	inactive: 0.026	inactive: -0.007	inactive: -0.058	inactive: 0.062	inactive: -0.398	inactive: 0.073	inactive: -0.034	inactive: -0.09

Some of the entries so far, as comma-separated lines.
Target,log2 fold change (nilotinib),log2 fold change [1],log2 fold change (dasatinib),log2 fold change [2],log2 fold change [3],log2 fold change (quisinostat),log2 fold change (tipifarnib),log2 fold change [4],log2 fold change [5],log2 fold change [6],log2 fold change [7],log2 fold change (vorinostat),log2 fold change (silmitasertib),log2 fold change [8],log2 fold change (entospletinib)
GALNS (UniProt P34059),inactive: 0.028,inactive: -0.006,inactive: 0.01,inactive: -0.004,inactive: 0,inactive: 0.02,inactive: -0.015,inactive: 0.019,inactive: 0.084,inactive: -0.02,inactive: -0.011,inactive: 0.087,inactive: -0.017,inactive: -0.003,inactive: -0.073
GFER (UniProt P55789),inactive: 0.053,inactive: -0.026,inactive: 0.046,inactive: -0.124,inactive: 0.068,inactive: 0.002,inactive: 0.032,inactive: 0.018,inactive: -0.004,inactive: -0.132,inactive: -0.04,inactive: 0.129,inactive: -0.028,inactive: -0.04,inactive: -0.075
